As usually defined, the IC50 is the concentration that inhibits the measured activity by half. A low value points to inhibition by little substance.

Amino acid sequences for entries named in this document (tags omitted). A change or cut given only in a name is not applied to a line headed by its entry.
UniProt P12931: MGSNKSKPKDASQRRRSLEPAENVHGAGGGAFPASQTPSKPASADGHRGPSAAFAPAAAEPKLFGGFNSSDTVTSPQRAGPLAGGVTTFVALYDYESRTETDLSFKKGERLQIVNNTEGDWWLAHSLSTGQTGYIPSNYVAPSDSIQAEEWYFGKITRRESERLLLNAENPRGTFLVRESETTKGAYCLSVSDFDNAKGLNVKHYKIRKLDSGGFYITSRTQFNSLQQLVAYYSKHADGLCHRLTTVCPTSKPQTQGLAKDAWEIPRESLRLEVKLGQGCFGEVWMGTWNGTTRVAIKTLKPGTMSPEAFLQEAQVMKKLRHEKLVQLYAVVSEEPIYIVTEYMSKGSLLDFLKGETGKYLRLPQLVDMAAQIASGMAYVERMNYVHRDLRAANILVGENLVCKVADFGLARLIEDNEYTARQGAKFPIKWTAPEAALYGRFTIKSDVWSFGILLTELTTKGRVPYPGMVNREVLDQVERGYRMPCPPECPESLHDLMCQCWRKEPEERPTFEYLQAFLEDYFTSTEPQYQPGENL
UniProt P28482, whole entry: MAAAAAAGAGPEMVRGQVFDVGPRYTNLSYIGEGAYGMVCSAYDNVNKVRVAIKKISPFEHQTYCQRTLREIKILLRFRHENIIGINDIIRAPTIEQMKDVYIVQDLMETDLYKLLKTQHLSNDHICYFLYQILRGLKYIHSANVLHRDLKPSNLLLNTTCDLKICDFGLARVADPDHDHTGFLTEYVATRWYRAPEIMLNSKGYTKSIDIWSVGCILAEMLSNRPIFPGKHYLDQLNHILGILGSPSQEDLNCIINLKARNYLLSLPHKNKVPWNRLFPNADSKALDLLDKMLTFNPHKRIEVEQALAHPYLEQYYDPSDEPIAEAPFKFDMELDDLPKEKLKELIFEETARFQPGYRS
UniProt Q05655: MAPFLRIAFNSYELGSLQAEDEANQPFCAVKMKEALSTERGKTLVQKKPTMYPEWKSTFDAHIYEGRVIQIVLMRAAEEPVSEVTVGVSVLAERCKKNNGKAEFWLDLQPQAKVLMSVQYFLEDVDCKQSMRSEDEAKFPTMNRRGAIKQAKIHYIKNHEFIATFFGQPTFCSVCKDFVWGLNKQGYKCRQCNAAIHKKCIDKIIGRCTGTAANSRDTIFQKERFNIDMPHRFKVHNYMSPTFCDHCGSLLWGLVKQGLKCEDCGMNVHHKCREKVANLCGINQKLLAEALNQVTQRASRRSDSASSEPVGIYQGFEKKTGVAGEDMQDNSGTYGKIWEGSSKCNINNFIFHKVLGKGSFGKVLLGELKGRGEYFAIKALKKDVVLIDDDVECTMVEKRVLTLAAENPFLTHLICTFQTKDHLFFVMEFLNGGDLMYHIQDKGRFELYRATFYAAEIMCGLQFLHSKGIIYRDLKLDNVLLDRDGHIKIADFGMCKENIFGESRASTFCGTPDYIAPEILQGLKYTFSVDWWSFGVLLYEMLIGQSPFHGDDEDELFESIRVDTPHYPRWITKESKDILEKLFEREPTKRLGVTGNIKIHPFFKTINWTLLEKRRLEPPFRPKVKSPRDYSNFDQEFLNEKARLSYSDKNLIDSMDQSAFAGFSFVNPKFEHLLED
UniProt P06493, whole entry: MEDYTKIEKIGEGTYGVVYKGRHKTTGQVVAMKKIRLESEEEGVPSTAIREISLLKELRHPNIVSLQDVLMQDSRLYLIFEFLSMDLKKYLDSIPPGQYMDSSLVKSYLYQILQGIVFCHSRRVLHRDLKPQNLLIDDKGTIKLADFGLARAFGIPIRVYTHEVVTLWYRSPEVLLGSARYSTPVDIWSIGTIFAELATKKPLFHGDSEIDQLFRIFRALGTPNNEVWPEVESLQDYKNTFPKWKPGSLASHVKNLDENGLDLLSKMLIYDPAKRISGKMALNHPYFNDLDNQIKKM
UniProt O96017, whole entry: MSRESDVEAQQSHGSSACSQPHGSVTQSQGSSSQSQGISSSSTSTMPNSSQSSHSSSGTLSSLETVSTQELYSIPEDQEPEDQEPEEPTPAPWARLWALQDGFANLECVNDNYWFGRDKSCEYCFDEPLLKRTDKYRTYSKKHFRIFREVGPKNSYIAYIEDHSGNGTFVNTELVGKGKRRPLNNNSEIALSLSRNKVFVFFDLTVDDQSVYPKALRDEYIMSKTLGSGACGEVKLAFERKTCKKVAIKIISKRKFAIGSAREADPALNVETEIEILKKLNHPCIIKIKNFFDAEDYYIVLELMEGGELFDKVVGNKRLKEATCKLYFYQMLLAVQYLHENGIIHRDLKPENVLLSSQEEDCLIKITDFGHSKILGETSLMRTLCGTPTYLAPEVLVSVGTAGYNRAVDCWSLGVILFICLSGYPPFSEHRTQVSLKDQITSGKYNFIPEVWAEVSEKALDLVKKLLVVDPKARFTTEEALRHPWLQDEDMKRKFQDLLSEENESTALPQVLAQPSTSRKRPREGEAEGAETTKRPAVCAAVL
UniProt P49137, whole entry: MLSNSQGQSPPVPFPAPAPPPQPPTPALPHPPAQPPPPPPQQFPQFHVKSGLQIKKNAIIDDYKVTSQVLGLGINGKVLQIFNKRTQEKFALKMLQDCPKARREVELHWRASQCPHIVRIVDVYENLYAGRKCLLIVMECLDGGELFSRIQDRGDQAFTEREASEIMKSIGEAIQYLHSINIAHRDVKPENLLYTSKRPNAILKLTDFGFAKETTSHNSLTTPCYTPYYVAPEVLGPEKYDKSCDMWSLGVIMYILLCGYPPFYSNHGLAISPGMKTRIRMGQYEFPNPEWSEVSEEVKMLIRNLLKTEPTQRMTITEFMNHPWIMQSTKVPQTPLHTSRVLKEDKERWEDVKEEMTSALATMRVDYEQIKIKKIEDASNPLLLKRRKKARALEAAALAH
UniProt P19784, whole entry: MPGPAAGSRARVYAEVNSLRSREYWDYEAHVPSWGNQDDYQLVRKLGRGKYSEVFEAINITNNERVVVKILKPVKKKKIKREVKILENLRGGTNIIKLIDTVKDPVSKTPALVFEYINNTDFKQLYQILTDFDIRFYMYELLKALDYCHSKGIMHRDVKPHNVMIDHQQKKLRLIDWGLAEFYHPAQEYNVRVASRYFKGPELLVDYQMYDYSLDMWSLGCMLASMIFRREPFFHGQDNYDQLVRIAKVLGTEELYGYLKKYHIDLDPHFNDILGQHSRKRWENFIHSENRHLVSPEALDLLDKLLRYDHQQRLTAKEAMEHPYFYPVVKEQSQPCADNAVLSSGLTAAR
UniProt P67870, whole entry: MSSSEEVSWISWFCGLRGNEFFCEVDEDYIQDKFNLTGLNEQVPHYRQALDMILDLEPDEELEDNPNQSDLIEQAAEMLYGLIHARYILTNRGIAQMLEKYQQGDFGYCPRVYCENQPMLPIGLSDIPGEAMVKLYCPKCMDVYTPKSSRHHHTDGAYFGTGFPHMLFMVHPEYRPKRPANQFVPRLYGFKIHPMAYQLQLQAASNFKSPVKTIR
UniProt P68400, whole entry: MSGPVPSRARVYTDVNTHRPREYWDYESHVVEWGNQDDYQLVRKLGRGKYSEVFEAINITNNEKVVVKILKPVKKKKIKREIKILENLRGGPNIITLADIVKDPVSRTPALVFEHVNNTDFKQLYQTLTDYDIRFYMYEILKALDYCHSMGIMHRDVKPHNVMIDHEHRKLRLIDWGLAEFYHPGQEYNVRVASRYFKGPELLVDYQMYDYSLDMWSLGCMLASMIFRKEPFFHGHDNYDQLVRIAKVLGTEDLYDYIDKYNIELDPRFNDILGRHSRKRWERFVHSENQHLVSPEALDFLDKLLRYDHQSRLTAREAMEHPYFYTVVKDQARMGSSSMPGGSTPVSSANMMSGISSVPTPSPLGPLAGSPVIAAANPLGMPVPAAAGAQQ

SMILES strings stand for the structures.

In assay [1] the target is T1, Serine/threonine-protein kinase Sgk1 (Homo sapiens, UniProt O00141).
T1 sequence (O00141 whole entry): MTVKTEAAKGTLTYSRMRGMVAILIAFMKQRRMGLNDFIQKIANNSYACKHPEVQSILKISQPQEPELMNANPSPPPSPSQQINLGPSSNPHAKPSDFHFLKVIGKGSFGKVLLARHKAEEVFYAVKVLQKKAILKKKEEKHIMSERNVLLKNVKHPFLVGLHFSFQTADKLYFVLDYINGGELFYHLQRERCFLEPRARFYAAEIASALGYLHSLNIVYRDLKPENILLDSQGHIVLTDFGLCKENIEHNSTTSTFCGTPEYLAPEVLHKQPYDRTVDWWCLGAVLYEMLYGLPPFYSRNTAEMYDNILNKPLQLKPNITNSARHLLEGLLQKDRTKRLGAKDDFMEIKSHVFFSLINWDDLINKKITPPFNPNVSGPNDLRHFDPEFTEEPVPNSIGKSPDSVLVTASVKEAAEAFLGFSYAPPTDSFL

Assay [2] addresses Proto-oncogene tyrosine-protein kinase Src (Homo sapiens, UniProt P12931).
The target of assay [3] is Mitogen-activated protein kinase 1 (Homo sapiens, UniProt P28482).
In assay [4] the target is Protein kinase C delta type (Homo sapiens, UniProt Q05655).
Assay [5] addresses Cyclin-dependent kinase 1 (Homo sapiens, UniProt P06493).
The target in assay [6] is Serine/threonine-protein kinase Chk2 (Homo sapiens, UniProt O96017).
Assay [7] concerns the target T2, Serine/threonine-protein kinase MARK2 (Homo sapiens, UniProt Q7KZI7).
T2 sequence (Q7KZI7 whole entry): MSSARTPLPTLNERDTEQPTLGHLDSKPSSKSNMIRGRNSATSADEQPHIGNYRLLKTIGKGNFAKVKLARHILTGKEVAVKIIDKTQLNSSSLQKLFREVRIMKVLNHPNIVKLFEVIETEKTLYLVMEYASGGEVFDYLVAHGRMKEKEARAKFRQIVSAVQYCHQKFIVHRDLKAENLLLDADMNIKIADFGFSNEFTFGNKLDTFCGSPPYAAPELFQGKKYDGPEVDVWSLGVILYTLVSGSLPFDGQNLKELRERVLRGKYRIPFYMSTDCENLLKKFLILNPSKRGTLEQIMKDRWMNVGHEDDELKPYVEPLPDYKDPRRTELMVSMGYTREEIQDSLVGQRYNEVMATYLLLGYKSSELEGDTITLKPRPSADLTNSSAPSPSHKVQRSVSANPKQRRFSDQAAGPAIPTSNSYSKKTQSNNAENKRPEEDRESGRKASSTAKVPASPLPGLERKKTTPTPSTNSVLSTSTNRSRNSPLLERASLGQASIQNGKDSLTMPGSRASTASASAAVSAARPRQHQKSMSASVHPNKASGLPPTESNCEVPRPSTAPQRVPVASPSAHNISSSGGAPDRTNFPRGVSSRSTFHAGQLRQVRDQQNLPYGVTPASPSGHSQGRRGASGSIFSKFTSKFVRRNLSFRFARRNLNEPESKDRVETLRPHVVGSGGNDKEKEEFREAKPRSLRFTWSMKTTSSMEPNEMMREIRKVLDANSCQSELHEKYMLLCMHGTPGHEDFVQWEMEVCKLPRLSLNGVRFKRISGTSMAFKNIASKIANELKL

Assay [8] has as its target Protein kinase C gamma type (Homo sapiens, UniProt P05129).
Assay [9] addresses MAP kinase-activated protein kinase 2 (Homo sapiens, UniProt P49137).
Another assay deals with Casein kinase II (Homo sapiens, UniProt P19784+P67870+P68400).

For the molecule `O=C(NCc1ccncc1)c1ccc2c(c1)Cc1c(-c3ccc(-c4ccc(O)cc4)cc3)n[nH]c1-2`, the IC50 in assay [1] is 15 µM; in assay [2] it was over 50 µM; in assay [3], over 50 µM; in assay [4], over 50 µM; in [5], over 50 µM; in [6], 10.3 µM. Moreover, the IC50 stood at 4.59 µM in assay [7] and 4.9 µM in assay [8].

Turning to `O=C(N[C@H]1CC[C@H](O)CC1)c1ccc2c(c1)Cc1c(-c3ccc(-c4ccc(O)cc4)cc3)n[nH]c1-2`, the IC50 is 1.32 µM in assay [1]; over 50 µM in [2]; over 50 µM in [3]; over 50 µM in assay [9]; over 50 µM in assay [4]; over 50 µM in [5]. Also, the IC50 in assay [6] was over 50 µM; in assay [7], over 50 µM; against Casein kinase II, 41 µM; in [8], over 33 µM.

These data come from ChEMBL document CHEMBL1147174, “Discovery of 1,4-dihydroindeno[1,2-c]pyrazoles as a novel class of potent and selective checkpoint kinase 1 inhibitors” (Bioorg Med Chem, 2007).
